Record: PubChem BioAssay AID602196 (INSERM, 2012)
This is an unselected part of about 23,000 deposited reagents. In the full data, 455 (2%) were called active. 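Active includes both protection and sensitisation; some change values fall well beyond the stated -50 to +50 range.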 Entries without a mark were called inactive. Further read-outs or replicates are left out here. No sequences are given here. Not given: the amount of reagent.

Purpose: 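Genes whose knock-down alters cisplatin killing of lung cancer cells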
System: human A549 lung cancer cells
Reagent: siRNA pair against human genes
Duration: 48 h transfection before cisplatin; time from cisplatin to read-out not stated
Challenge: cisplatin at a dose killing half of control-siRNA cells; exact dose and duration not given
Detection: 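Cisplatin cell death as a shift from the 50% death seen with control siRNA; siRNAs toxic or growth-blocking alone scored 0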
Scale: two-siRNA summed score (-2 to +2): higher = both siRNAs protect from cisplatin killing; -2 means both sensitise; mean protection from cisplatin (shift in death) and protection from cisplatin (shift in death), siRNA C: higher = protection from cisplatin killing
Call rule: 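siRNAs harmful alone (LDH or WST-1) get 0; others get +1 for less and -1 for more cisplatin killing; genes are active when the two siRNAs give the same sign, summing to ±2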
Calls: active = both siRNAs shift cisplatin killing the same way; inactive = no consistent shift, or siRNA harmful alone

gene knocked down	two-siRNA summed score (-2 to +2)	mean protection from cisplatin (shift in death) (%)	protection from cisplatin (shift in death), siRNA C (%)
BSG	-1	-10.7	-16.5
DRAP1	1	15.4	15.9
RBP5	0	11.6	19.8
PAPOLG	0	-4.7	0.9
OR10H5	0	5.5	-3.7
NXPE2	0	6.8	6.7
GEMIN8	0	8.9	9.8
LOC254897	0	6.2	9.8
PDF	1	11.1	3.4
MKRN1	0	-2.7	0.3
IQCN	0	1.3	3.6
TBX22	0	5.3	5.1
PCIF1	1	1.1	14.5
ERBB2	-1	-13.9	-7.9
CHD7	0	1.3	-4.9

Continued, starting with the last 5 of the part before.
gene knocked down	two-siRNA summed score (-2 to +2)	mean protection from cisplatin (shift in death) (%)	protection from cisplatin (shift in death), siRNA C (%)
IQCN	0	1.3	3.6
TBX22	0	5.3	5.1
PCIF1	1	1.1	14.5
ERBB2	-1	-13.9	-7.9
CHD7	0	1.3	-4.9
CTNS	-1	-11	5.5
PRICKLE3	1	8.6	25.3
LOC440867 (retired record)	1	6.3	-4.3
GNG5	0	1.2	-24.7
SIRT5	0	-5.8	-7.5
PANX2	0	-1.7	-2.7
RHOG	1	9.9	17
THBS3	-1	-8.2	-13.2
LOC441848	0	8.4	6.7
DNAAF4	0	-9.4	-9.7
ESR1	0	0.4	-2.3
LOC440255	1	10.5	4.6
LOC401570	1	13.9	19.6
AKIP1	0	11	11.7
ZMIZ2	0	7.6	11.2
PATE2	0	-11.7	-29.6
USP8	-1	-12.1	-35.1
LOC253662	0	14.5	21.4
IRF8	2 (active)	28	19
CXADR	-1	-19.2	-16.3
WDR89	0	7.6	12.5
DOCK5	0	4.5	10.6
KAT7	-1	-12.2	-22
GBX2	0	2.1	-3.5
